Reference: patent US8563000B2 (Ipsen Pharma S.A.S., priority 2007, dated 2013)

Experiment: general procedure: Fmoc solid-phase peptide synthesis; Rink Amide MBHA resin (0.78 mmol/g, Novabiochem); Wang resin for C-terminal acids; DIC/HOBT
Details: whole synthesis, reverse-phase HPLC, C18, scale of the general procedure 0.105 mmoles

Substance	final purity (method not given)
Hydantoin(C(O)-(Cha-Nle))-cyclo(Cys-D-Ala-His-D-Phe-Arg-Trp-Cys)-NH2	95.9%
Hydantoin(C(O)-(Val-Nle))-cyclo(Cys-D-Ala-His-D-Phe-Arg-Trp-Cys)-NH2	97.9%
Hydantoin(C(O)-(Gly-Gly))-cyclo(Cys-Glu-His-D-Phe-Arg-Trp-Cys)-NH2	98.2%
Hydantoin(C(O)-(D-Ala-Nle))-cyclo(Cys-D-Ala-His-D-Phe-Arg-Trp-Cys)-NH2	99.9%
Hydantoin(C(O)-(Gly-Arg))-cyclo(Cys-Glu-His-D-Phe-Arg-Trp-Cys)-NH2	99.0%
Hydantoin(C(O)-(Nle-Gly))-cyclo(Cys-D-Ala-His-D-Phe-Arg-Trp-Pen)-NH2	95.9%
Hydantoin(C(O)-(Ile-Gly))-cyclo(Cys-D-Ala-His-D-Phe-Arg-Trp-Cys)-NH2	98.7%
Hydantoin(C(O)-(D-Ala-Gly))-cyclo(Cys-D-Ala-His-D-Phe-Arg-Trp-Cys)-NH2	98.2%
cyclo[Hydantoin(C(O)-(Aib-Cys))-D-Ala-His-D-Phe-Arg-Trp-Cys]-NH2	99.9%
cyclo[Hydantoin(C(O)-(Asp-A3c))-D-2-Nal-Arg-Trp-Lys]-NH2	95.8%
Hydantoin(C(O)-(Nle-Gly))-cyclo(Cys-Glu-His-D-Phe-Arg-Trp-Cys)-NH2	95.6%
Hydantoin(C(O)-(Aib-Gly))-cyclo(Cys-D-Ala-His-D-Phe-Arg-Trp-Cys)-NH2	99.9%
cyclo[Hydantoin(C(O)-(Glu-D-Ala))-His-D-Phe-Arg-Trp-Lys]-NH2	99.9%
Hydantoin(C(O)-(Nle-Gly))-cyclo(Cys-D-Ala-His-D-Phe-Arg-Trp-Cys)-NH2	95.2%
cyclo[Hydantoin(C(O)-(Glu-D-Ala))-His-D-Phe-Arg-Trp-Dab]-NH2	95.5%
cyclo[Hydantoin(C(O)-(Asp-Aic))-D-2-Nal-Arg-Trp-Lys]-NH2	99.9%
Hydantoin(C(O)-(Gly-Gly))-cyclo(Cys-D-Ala-His-D-Phe-Arg-Trp-Cys)-NH2	99.9%
cyclo[Hydantoin(C(O)-(Asp-D-Ala))-His-D-Phe-Arg-Trp-Dap]-NH2	97.0%
Hydantoin(C(O)-(A6c-Nle))-cyclo(Cys-D-Ala-His-D-Phe-Arg-Trp-Cys)-NH2	99.9%
cyclo[Hydantoin(C(O)-(A6c-Cys))-D-Ala-His-D-Phe-Arg-Trp-Cys]-NH2	99.9%
Hydantoin(C(O)-(Leu-Gly))-cyclo(Cys-D-Ala-His-D-Phe-Arg-Trp-Cys)-NH2	98.0%

Substance	final purity (method not given)
Hydantoin(C(O)-(Aib-Nle))-cyclo(Cys-D-Ala-His-D-Phe-Arg-Trp-Cys)-NH2	99.9%
cyclo[Hydantoin(C(O)-(Asp-D-Ala))-His-D-Phe-Arg-Trp-Orn]-NH2	98.7%
cyclo[Hydantoin(C(O)-(Val-Cys))-D-Ala-His-D-Phe-Arg-Trp-Cys]-NH2	95.4%
Hydantoin(C(O)-(Leu-Nle))-cyclo(Cys-D-Ala-His-D-Phe-Arg-Trp-Cys)-NH2	95.5%
Hydantoin(C(O)-(D-Arg-Gly))-cyclo(Cys-Glu-His-D-Phe-Arg-Trp-Cys)-NH2	97.7%
cyclo[Hydantoin(C(O)-(Ile-Cys))-D-Ala-His-D-Phe-Arg-Trp-Cys]-NH2	99.9%
cyclo[Hydantoin(C(O)-(Glu-D-Ala))-His-D-Phe-Arg-Trp-Orn]-NH2	99.9%
Hydantoin(C(O)-(D-Arg-Gly))-cyclo(Cys-D-Ala-His-D-Phe-Arg-Trp-Cys)-NH2	97.0%
Hydantoin(C(O)-(Arg-Gly))-cyclo(Cys-D-Ala-His-D-2-Nal-Arg-Trp-Cys)-NH2	99.9%
cyclo[Hydantoin(C(O)-(Asp-A6c))-D-2-Nal-Arg-Trp-Lys]-NH2	96.3%
cyclo[Hydantoin(C(O)-(Asp-His))-D-2-Nal-Arg-Trp-Lys]-NH2	96.0%
Hydantoin(C(O)-(Arg-Gly))-cyclo(Cys-D-Ala-His-D-Phe-Arg-Trp-Cys)-NH2	99.0%
Hydantoin(C(O)-(Val-Gly))-cyclo(Cys-D-Ala-His-D-Phe-Arg-Trp-Cys)-NH2	96.9%
Hydantoin(C(O)-(Gly-D-Arg))-cyclo(Cys-D-Ala-His-D-Phe-Arg-Trp-Cys)-NH2	95.0%
Hydantoin(C(O)-(Gly-Gly))-cyclo(Cys-D-Ala-His-D-Phe-Arg-Trp-Pen)-NH2	99.9%
Hydantoin(C(O)-(Gly-Arg))-cyclo(Cys-D-Ala-His-D-Phe-Arg-Trp-Cys)-NH2	98.0%
Hydantoin(C(O)-(Ala-Gly))-cyclo(Cys-D-Ala-His-D-Phe-Arg-Trp-Cys)-NH2	99.9%
cyclo[Hydantoin(C(O)-(Leu-Cys))-D-Ala-His-D-Phe-Arg-Trp-Cys]-NH2	99.9%
cyclo[Hydantoin(C(O)-(Asp-A5c))-D-2-Nal-Arg-Trp-Lys]-NH2	98.5%
cyclo[Hydantoin(C(O)-(Asp-Apc))-D-2-Nal-Arg-Trp-Lys]-NH2	98.7%
